Patent publication US4460576A (Kaken Pharmaceutical Co., Ltd., priority 1982, dated 1984)

test: general procedure: solution-phase peptide synthesis; DCC; DCC/HOBt; azide method; mixed anhydride (isobutyl chloroformate); ONp activ; settings: coupling step

Substance | step yield
Boc--Asp(OBzl)--Thr--Met--Arg(Mts)--Cys(MBzl)--Met--Val--Gly--Arg(Mts)--Val--Tyr--Arg(Mts)--Pro--Cys(MBzl)--Trp--Gln--Val--OBzl | 59% of theoretical amount
Boc--Asp(OBzl)--Thr--Met--Arg(Mts)--Cys(MBzl)--Met--Val--Gly--OH | 78% of theoretical amount
Boc--Cys(MBzl)--Trp--Gln--Val--OBzl | 83% of theoretical amount
Z(OMe)--Arg(Mts)--Cys(MBzl)--Met--Val--Gly--OH | 69% of theoretical amount
Z(OMe)--Arg(Mts)--Val--Tyr--Arg(Mts)--Pro--Cys(MBzl)--Trp--Gln--Val--OBzl | 56% of theoretical amount
Z(OMe)--Arg(Mts)--Val--Tyr--Arg(Mts)--Pro--OH | 67% of theoretical amount
Z(OMe)--Thr--Met--Arg(Mts)--Cys(MBzl)--Met--Val--Gly--OH | 90% of theoretical amount
